Results published in patent US20110059079A1 (XOMA TECHNOLOGY, published 2011).
Results are given in words; binding and its absence hold for the method and conditions named. Some results given as binding are weak or reduced against the parent protein; the word gives no strength.

Key:
[1] = target: BoNT/A heavy-chain C-terminus (HCC) domain (UniProt P0DPI0); assay: toxin domain binding ELISA of the mixture after 24 months at 2-8 C
[2] = target: BoNT/A heavy-chain C-terminus (HCC) domain (UniProt P0DPI0); assay: ELISA, toxin domain coated on plate, anti-human IgG Fc-HRP detection
[3] = target: BoNT/A heavy-chain C-terminus (HCC) domain (UniProt P0DPI0); assay: toxin domain ELISA of the 1:1:1 co-formulated mixture (FIG. 15A legend)
[4] = target: BoNT/A light-chain heavy-chain N-terminus (LCHN) domain (UniProt P0DPI0); assay: toxin domain binding ELISA of the mixture after 24 months at 2-8 C
[5] = target: BoNT/A light-chain heavy-chain N-terminus (LCHN) domain (UniProt P0DPI0); assay: ELISA, toxin domain coated on plate, anti-human IgG Fc-HRP detection
[6] = target: BoNT/A light-chain heavy-chain N-terminus (LCHN) domain (UniProt P0DPI0); assay: toxin domain ELISA of the 1:1:1 co-formulated mixture (FIG. 15C legend)

Measured: binding

B1: ABT02 (antibody, V domains shown)
VH: QVQLVQSGGGVVHPGRSLKLSCAGSGFTFSDYDMHWVRQAPGKGLEWVAVMWFDGTEKYSAESVKGRFTISRDNSKNTLFLQMNSLRADDTAVYYCAREPDWLLWGDRGALDVWGQGTTVTVSS
VL: DIVMTQSPSTLSASVGDRVTITCWASQSISSRLAWYQQKPGKAPKLLMYEATSLGSGVPSRFSGSGSGTEFTLTISSLQPDDFAAYYCQHYDTYPYTFGQGTKLEIK
binds: [1] | [2] | [3]

B2: ABT03 (antibody, V domains shown)
VH: QVQLQQSGGGLVQPGGSLRLSCAASGFTFSNYAMTWVRQAPGKGLEWVSSISVGGSDTYYADSVKGRFTVSRDNSKNTLLLQMNSLRAEDTAVYYCAKVRTKYCSSLSCFAGFDSWGQGTRVTVSS
VL: DVVMTQSPSSLSASVGDRVTITCRASQSISSYLHWYQQKPGKAPTLLISDASSSQSGVPSRFSGSRFGTDFTLTISSLQPEDFATYYCQQSYSTRALTFGGGTKVEIK
binds: [4] | [5] | [6]
